Drawing on patent publication US20160145308A1 (SANFORD BURNHAM MEDICAL RESEARCH INSTITUTE, published 2016), this text covers binding for one molecule.

No constants are given. Whether binding was seen depends on the method and setting. Some binding calls cover weakened binding; strength is not graded here.

The target of the test is T1, cyclic nucleotide-gated channel beta 3 (CNGB3), from membrane fraction of human endometriosis tissue (human) (UniProt Q9NQW8).
T1 sequence: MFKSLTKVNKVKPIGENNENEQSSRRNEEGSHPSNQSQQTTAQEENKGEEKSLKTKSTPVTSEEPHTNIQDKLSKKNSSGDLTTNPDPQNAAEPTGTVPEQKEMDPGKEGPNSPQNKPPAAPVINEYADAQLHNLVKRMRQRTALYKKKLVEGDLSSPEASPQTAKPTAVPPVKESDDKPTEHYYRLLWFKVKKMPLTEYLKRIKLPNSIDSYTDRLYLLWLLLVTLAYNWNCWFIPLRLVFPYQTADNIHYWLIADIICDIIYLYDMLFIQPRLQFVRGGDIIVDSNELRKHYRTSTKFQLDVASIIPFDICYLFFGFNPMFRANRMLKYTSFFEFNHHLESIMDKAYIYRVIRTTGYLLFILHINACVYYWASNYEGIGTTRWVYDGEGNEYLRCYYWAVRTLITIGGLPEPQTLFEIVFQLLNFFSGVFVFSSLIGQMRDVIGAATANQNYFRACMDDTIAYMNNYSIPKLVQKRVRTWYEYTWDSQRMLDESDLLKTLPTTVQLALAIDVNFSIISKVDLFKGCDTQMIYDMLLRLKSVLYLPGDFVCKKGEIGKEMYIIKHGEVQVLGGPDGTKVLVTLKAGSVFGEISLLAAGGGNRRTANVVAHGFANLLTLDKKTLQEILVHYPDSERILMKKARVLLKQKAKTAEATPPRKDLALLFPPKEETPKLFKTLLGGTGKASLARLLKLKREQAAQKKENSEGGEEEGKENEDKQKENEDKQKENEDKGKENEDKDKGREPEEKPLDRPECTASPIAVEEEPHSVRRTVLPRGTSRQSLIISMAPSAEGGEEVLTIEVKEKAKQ
Briefly: affinity chromatography on z13-conjugated agarose beads, elution with free z13 peptide, silver stain, MALDI-TOF.

B1: z13-conjugated agarose beads (cys-z13 peptide on sulfo-link agarose) (peptide)
peptide: CVRRADNRPG
modifications: N-terminal Cys coupled to sulfo-link agarose beads
In the case of B1, the binding result is given as “binds”.
